# Several values for one entry are separate records, joined by “and”; a condition that tells them apart may be missing. Equal values may be shown once. Out of some 200,000 compounds screened, about 25 (0.01%) were called active. The shares of active, inactive and inconclusive entries below differ from those in the screen. Calls come from the whole dose curve; as a rule, active = well fitted inhibition curve with a large enough effect in the signal ratio, with a control signal flat (not every such curve was filed as active); inconclusive = small, poorly fitted or top-dose-only effect, or effect the other way, or a change in a side signal; inactive = flat fitted curve, though single readings scatter; the % refers to the signal ratio. A potency beside an inconclusive call is a rough fit, not a confirmed value.
# Experiment: qHTS Assay for Modulators of Lamin A Splicing
# Conditions: HeLa LMNA splicing GFP/RFP minigene ratio, 48 h; ratio change, negative = inhibition: at 46.1 µM (top of the series) unless noted
# Outline: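 S3 HeLa cells stably expressing lamin A-EGFP splicing minigene plus DsRed2, 600 cells/well, 48 h compound exposure at 37C. Laser-scanning cytometry; analysed as GFP (500-530 nm)/RFP (575-640 nm) total intensity ratio; 0.5% DMSO vehicle.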
# % is set by controls: 0 for no effect and ±100 for the full control effect; potency is the fitted concentration of half-maximal effect.
Structure (SMILES),"ratio change, negative = inhibition",Potency
Cc1ccc(NC(=O)CS(=O)CC(=O)NC2CCN(Cc3ccccc3)CC2)c(C)c1 (stereo not given),inconclusive: 19.1%,–
Clc1ccc(OCCSc2nnnn2C2CCCCC2)cc1,–,"inconclusive: 35.5 µM [falling, single point]"
O=C(COc1ccccc1-c1ccccc1)N/N=C/c1ccncc1,inconclusive: 5.86% [at 46 µM],–
COC(=O)C1=C(C(=O)OC)[C@@H]2N(C)c3ccc(OC)cc3[C@@]23C[C@@H](C(=O)OC)N(S(=O)(=O)c2c(C)noc2C)C3=N1,inconclusive: 6.22% [at 9.22 µM],–
O=C(CCn1c(=O)c2ccccc2n(Cc2cc(=O)n3ccccc3n2)c1=O)NCc1ccco1,inactive,–
CN1CC(=O)N(CC(=O)Nc2cccc(C#N)c2)c2ccccc2C1=O,inactive,–
CCOC(=O)N1CCN(Cc2nc3cc(NC(=O)c4ccc(F)cc4)ccc3n2C(C)C)CC1,inconclusive: -18.5% [at 46 µM],–
COc1ccccc1CNC(=O)[C@@H]1CCCN1S(=O)(=O)c1ccc(C)cc1,inactive,–
O=C(NNS(=O)(=O)c1ccc(Cl)cc1)NC1CCCCC1,inactive,–
Nc1nc(COc2ccc3ccccc3c2)cs1,inconclusive: 7.12%,–
CCCCNC(=O)CCCCCNS(=O)(=O)c1ccc(Br)cc1,inconclusive: 25% [at 9.22 µM],–
C(#CCN1CCCC1)CC(c1ccccc1)c1ccccc1,inconclusive: -4.43% [at 46 µM],–
CC(NC(=O)C(NC(=O)C(Cc1c[nH]c2ccccc12)NC(=O)OC(C)(C)C)C(C)C)C(N)=O (stereo not given),inconclusive: 23.7% [at 46 µM],–
O=C1CCN(C(=O)c2cccs2)c2ccccc21,inactive,–
CCN(CC)Cc1c(O)ccc2c(=O)c(-c3ccc4c(c3)OCCO4)coc12,–,"inconclusive: 22.4 µM [falling, single point]"
CCOC(=O)c1c(NC(=O)c2ccc(S(=O)(=O)N3CCOCC3)cc2)sc2c1CCN(C)C2,inconclusive: -33.3%,–
c1cncc(CNc2ncnc3ccc(-c4ccoc4)cc23)c1,inconclusive: 4.38%,–
O=C(NC1CCCCC1)c1ccc2c(c1)N(Cc1ccccc1F)C(=O)c1ccccc1S2,inactive,–
COc1ccc(-c2cc(C(=O)O)no2)cc1,inactive,–
O=C(COC(=O)c1cnccn1)c1ccc(Cl)cc1,inconclusive: 2.03% [at 9.22 µM],–
CC(C)CCOC(=O)C[N+](C)(C)CCOC1CC2CCC1(C)C2(C)C (stereo not given),inconclusive: -15% [at 46 µM],–
CCOc1cccc(C(=O)Nc2nc(-c3ccc(S(=O)(=O)N4CCOCC4)cc3)cs2)c1,inconclusive: 11.2%,–
COc1ccc(Cc2nc(N)nc(N)n2)cc1,inconclusive: 10.1%,–
COc1ccccc1C(=O)Nc1cccc(C(=O)OCc2cc(=O)n3c4c(sc3n2)CCCC4)c1,inactive,–
COc1cccc(C2CCCN2Cc2nc(-c3sccc3C)oc2C)c1 (stereo not given),inconclusive: -17% [at 46 µM],–
Cc1nc(CSc2nsc(C)c2C#N)cs1,inconclusive: -22.3% [at 46 µM],–
CC1(C)CC(NC(=O)c2sc3cc(Cl)ccc3c2Cl)CC(C)(C)N1,inconclusive: -16% [at 46 µM],–

# Record cards (already shown). Values in the order: ratio change, negative = inhibition	Potency
# COc1cccc(C2CCCN2Cc2nc(-c3sccc3C)oc2C)c1 (stereo not given) as listed: inconclusive: -17% [at 46 µM]	–
# Cc1nc(CSc2nsc(C)c2C#N)cs1 as listed: inconclusive: -22.3% [at 46 µM]	–
# O=C(NC1CCCCC1)c1ccc2c(c1)N(Cc1ccccc1F)C(=O)c1ccccc1S2 as listed: inactive	–
# C(#CCN1CCCC1)CC(c1ccccc1)c1ccccc1 as listed: inconclusive: -4.43% [at 46 µM]	–

# The list continues:

Structure (SMILES),"ratio change, negative = inhibition",Potency
COC(=O)C1=C(C)N(C)C(=O)NC1c1cc(Cl)cc(Cl)c1OC (stereo not given),inconclusive: 3.96%,–
COc1cc([N+](=O)[O-])c(C(=O)N2CCOCC2)c([N+](=O)[O-])c1,inconclusive: -11.7%,–
Cc1ccc(C(=O)/C=C\NCc2ccccc2)cc1,inconclusive: 12%,–
Cc1ccc(C(=O)Nc2cc3ccccc3oc2=O)cc1,inconclusive: -18.3% [at 46 µM],–
CCCCNC(=O)c1cc(-c2cccnc2)nc2ccc(S(=O)(=O)NCCCC)cc12,inconclusive: 48.7% [at 46 µM],–
CN(Cc1ccco1)c1nc(-c2cccnc2)nc2ccccc12,–,"inconclusive: 35.5 µM [rising, single point]"
COc1ccc(NC(=O)c2ccccc2-c2ccccc2)cc1,inconclusive: -20% [at 46 µM],–
Cc1cc(O)ccc1N=Cc1c(C(F)(F)F)[nH][nH]c1=O,–,"inconclusive: 35.5 µM [cytotoxic, single point]"
CC1(CC(=O)N/N=C/c2cc(Br)c(O)cc2O)OCCO1,inconclusive: -24.3%,–
COCCCn1c(SCC(=O)NC2CCCC2)nnc1-c1ccco1,inactive,–
CCOC(=O)c1ccc(N=c2scc(C)n2CC)cc1,–,"inconclusive: 35.5 µM [inhibitor, single point]"
O=C(Nc1nccs1)c1ccccn1,–,"inconclusive: 35.5 µM [activator, single point]"
CC(=O)Nc1ccc(S(=O)(=O)N2CCN(c3nc(NC4CCCC4)c4ccccc4n3)CC2)cc1,–,"inconclusive: 35.5 µM [cytotoxic, single point]"
COc1ccc(-n2c(NC(=O)c3ccco3)c(C#N)c3nc4ccccc4nc32)cc1,inconclusive: 32.8%,–
COc1ccc(S(=O)(=O)NCCc2sc(-c3cccnc3)nc2C)cc1OC,inconclusive: -11.2% [at 46 µM],–
CC(=O)c1ccc(N2CCN(C(=O)c3cc(S(=O)(=O)N4CCCCCC4)cn3C)CC2)cc1,inactive,–
O=C(CCCCC(=O)NCc1cccs1)NCc1cccs1,inactive,–
CNCc1cc(Br)c(OCC(=O)Nc2ccccc2OC)c(OC)c1,inconclusive: 2.44% [at 46 µM],–
COc1ccccc1N1CCN(C(=O)C(C)N(c2ccc(C)c(C)c2)S(C)(=O)=O)CC1 (stereo not given),–,"inconclusive: 35.5 µM [fluorescent, single point]"
C=CCn1c(=O)c2c(nc(-c3ccc(S(=O)(=O)O)cc3)n2C)n(C)c1=O,inconclusive: -16.9%,–
Cc1onc(-c2ccccc2)c1C(=O)Nc1cc(C(F)(F)F)ccc1N1CCOCC1,inconclusive: -17.7%,–
CCN(CC)c1ccc(S(=O)(=O)N2CCOCC2)cc1NS(C)(=O)=O,inconclusive: -6.06% [at 46 µM],–
Cc1nc(C)n(CC(O)COc2ccc3c(c2)CCC3)n1 (stereo not given),inactive,–
Cc1nnsc1C(=O)Nc1cccc(Cl)c1C,inconclusive: 17.6% [at 9.22 µM],–
O=[N+]([O-])c1cc(Br)c(O)c(/C=N/Nc2nnnn2-c2cccc3ccccc23)c1,inactive,–
O=C(c1cc(-c2cccc(O)c2)on1)N1CCOCC1,inactive,–
COc1cc(Nc2ncc3c(n2)CCN(Cc2ccc(OC(C)C)c(OC)c2)C3)cc(OC)c1,inconclusive: -6.88% [at 46 µM],–

Structure (SMILES),"ratio change, negative = inhibition",Potency
O=C(Nc1c(C(=O)NCc2ccco2)cnn1-c1ccccc1)c1cccc(F)c1,inconclusive: 18.4%,–
CCc1nn2c(=O)cc(COC(=O)c3ccc(NC(=O)COc4ccccc4C)cc3)nc2s1,inconclusive: -2.34% [at 46 µM],–
CCn1nnnc1-c1ccc(OC)c(S(=O)(=O)Nc2ccc(S(N)(=O)=O)cc2)c1,inactive,–
CN(C)c1cccc2c1c(NC(=O)Nc1ccc(Cl)cc1Cl)nn2C,inconclusive: -4.15% [at 46 µM],–
CC(C)CC(=O)NC1(C(F)(F)F)C(=O)Nc2c1c(=O)[nH]c(=O)n2Cc1ccco1 (stereo not given),inactive,–
Cc1ccc(-n2cnc3cc(C(=O)NCCC4=CCCCC4)ccc32)c(C)c1,inconclusive: -7.69% [at 46 µM],–
COC(=O)c1ccc(S(N)(=O)=O)o1,inactive,–
CCOC(=O)Cc1ccc(NC(=O)N(Cc2ccc(OC)cc2)C2CCN(C(C)=O)CC2)cc1,inconclusive: 15.7% [at 46 µM],–
Cc1ccc(C2C(C#N)=C(N)N(N(C)C)C3=C2C(=O)CCC3)cc1 (stereo not given),inactive,–
CCc1cccc(CC)c1NC(=S)NCCc1c(C)[nH]c2ccccc12,–,"inconclusive: 35.5 µM [inhibitor, single point]"
Clc1ccc(-n2cc(COCc3ccccc3)nn2)cc1,inactive,–
Cc1ccc(S(=O)(=O)NC(=O)NN2CCCCCC2)cc1,inconclusive: -2.67% and inconclusive: -22.6% and inconclusive: -8.52%,–
O=C(Cn1c(-c2cccs2)cc2ccccc21)N1CCN(c2ccc(Cl)cc2)CC1,inconclusive: 3.02% [at 46 µM],–
COc1ccc(-c2cn3c(n2)sc2cc(C(=O)NCCC4=CCCCC4)ccc23)cc1,inconclusive: 15.6% [at 46 µM],–
Cc1ccc([N+](=O)[O-])cc1S(=O)(=O)n1ccnc1C,inconclusive: -11.8% [at 46 µM],–
Cc1ccc(C)n1CCN1CCN(CC(=O)Nc2ccc(S(N)(=O)=O)cc2)CC1,–,"inconclusive: 20 µM [activator, partial curve]"
CCOC(=O)c1sc2ncn(CC(=O)N(CC)CC)c(=O)c2c1C,inconclusive: 12.6%,–
O=C(CCn1cnc2ccccc21)N/N=C/c1ccccc1O,inconclusive: -23.6%,–
Cc1ccc(N2CC(C(=O)O)CC2=O)cc1 (stereo not given),inactive,–
CN(C)c1ccc(/C=N/N=C2/NC(=O)/C(=C/c3ccc([N+](=O)[O-])cc3)S2)cc1,inconclusive: 10.3%,–
COc1ccc(N2CC(NC(=O)C(=O)c3c(C)[nH]c4ccccc34)CC2=O)cc1 (stereo not given),inactive,–
CC1(C)Cc2nc3sc4c(SCC(=O)NCc5ccco5)ncnc4c3cc2CO1,inconclusive: 8.09%,–
CC(=O)N1CCc2ccc(C(=O)CN3CCN(c4cccc(C)c4C)CC3)cc21,inactive,–
O=S(=O)(c1ccc(Br)cc1)N1CCCN(Cc2ccccc2F)CC1,–,"inconclusive: 35.5 µM [fluorescent, single point]"
CC(C)OCCCNC(=S)Nc1ccc(S(N)(=O)=O)cc1,inconclusive: 14.2%,–
C/C(CC(=O)NCc1ccco1)=N\NC(=O)CC#N,inconclusive: 18.4% [at 46 µM],–

# Reference: PubChem BioAssay AID1487 (National Center for Advancing Translational Sciences (NCATS), 2009)
